## Percent effect of library compounds

Values are the deposited “Percent Effect”, in %.
The record does not define 0% and 100%; most values in the screen are far below 50% and negative numbers occur (in some assays of this library far below -100).
The compounds are a random part of those screened.
Two or more numbers in one place are separate tests of the same structure; such repeats can differ widely.
A dash means the value is not listed here; it may have been measured.

Toxoplasma: 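Assay of Toxoplasma gondii numbers, read through their beta-galactosidase reporter with a colour substrate. Concentration: 10 µM. Higher reads as fewer parasites (inferred from which compounds were picked for retests). About 67,000 compounds were tested under these conditions; 0.38% (about 260) showed 50% or more at least once.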
T. brucei: 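Whole-parasite assay of Trypanosoma brucei over 72 hours; the read-out is not stated. Tested at 30 µM. Direction is inferred from retests: higher values go with stronger inhibition. Values scatter widely below zero; nearly all retest evidence comes from the higher of the two concentrations used. About 64,000 compounds were tested under these conditions; 1.5% (about 940) showed 50% or more at least once.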
Leishmania in macrophages: 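Cell assay of Leishmania donovani living inside macrophages; the read-out is not stated. Tested at 30 µM. Direction is inferred from retests: higher values go with stronger inhibition. Of about 69,000 compounds tested this way, about 1,000 (1.5%) reached 50% or more in at least one test.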

Compound	Toxoplasma	T. brucei	Leishmania in macrophages
Cc1ccsc1C(=O)N1CC2CC1(C(=O)NCc1ccco1)C2	-10.72	-19.79	-9.919
COCCn1ccc2c(C(=O)O)cccc21	-22.17	-10.77	32.62
Cl.O=C(Nc1cccc(CNCc2ccsc2)c1)C1CC1	22.93	-	-4.779
CC(C)Oc1cccc(CC(=O)NC2CCN(CC(N)=O)CC2)c1	3.22	-76.59	2.435
O=C(O)C(F)(F)F.[H][C@@]12OCCN(Cc3ccc(F)cc3)[C@@]1([H])CC[C@H]2OCC1CCCC1	22.43	44.45	-0.2396
CN(CC(=O)NCc1ccccn1)C1CCCN(c2cccnn2)C1 (configuration not stated)	-27.84	-15.32	10.65
c1cc(CN2CCOCC3(CCNCC3)C2)ccn1	-3.289	-12.49	34.61
O=C(NCCCN1CCOCC1)c1ccn(COc2ccc(Br)cc2)n1	16.5	-8.751	-93.01
CS(=O)(=O)NC1CCN(C(=O)NCc2ccccn2)CC1	2.584	-	7.272
CC(C)CC(=O)N1CCCC1c1cc(CO)[nH]n1 (configuration not stated)	-8.479	-26.25	33.01
CCCc1cc(N2CCCC2Cn2cc(C)cn2)n2ncnc2n1 (configuration not stated)	0.1142	-15.04	8.895
CC(C)(C)n1cc(C(=O)N2CCN(Cc3ccncc3)CC2)cn1	-10.93	9.604	-0.2094
[H][C@@]12CCN(C(=O)NCc3cccc(F)c3)C[C@]1([H])[C@@H](CN(C)C)OC2	2.69	-8.797	22.7
N#Cc1nccnc1NC1CCN(c2ccccc2Br)C1 (configuration not stated)	2.083	-56.41	-7.134
CNS(=O)(=O)CC(=O)N1CC2(CCCC2)c2c(F)cccc21	3.082	-15.73	9.554
OCCN1CCC(c2csc(Nc3cnccn3)n2)CC1	23.63	6.088	-21.18
O=C(O)C(F)(F)F.O=C(c1ccccc1)N1CCC[C@]2(C[C@@H](Oc3ncccc3F)CO2)C1	16.27	-46.98	-17.71
COc1ccc(C2CCCCCN2S(C)(=O)=O)cc1 (configuration not stated)	-33.46	-	-20.59
Cc1cc(N(C)C)nc(NC2CCc3nc(C)nn3C2)n1 (configuration not stated)	-12.04	4.277	5.177
Cc1nccn1C1CCCN(C(=O)Cc2cn3ccccc3n2)C1 (configuration not stated)	10.98	-	-12.42
Cc1cnn(C2CN(c3ccccc3S(=O)(=O)C(F)(F)F)C2)c1	38.99	-19.15	15.54
CCOCC(O)CN1CCN(C(=O)C2CCCCC2)CC1 (configuration not stated)	1.025	-17.96	-4.151
CC(=O)c1c(O)n(C)c2ccc(C)cc12	7.346	-12.46	16.01
Nc1ncc2c(n1)CN(C1CCCC1)C2=O	17.83	49.38	22.17
Cc1cc(=O)c(C(=O)N(C)Cc2ccc(Cl)c(F)c2)c[nH]1	0.8954	-15.27	24.44
CCCn1ncc(C(=O)N2CCN(C3CCSCC3)CC2)c1C	-5.859	-109.1	16.18
Cc1occc1C(=O)NCC(=O)N1CCCC(c2ccccc2)CC1 (configuration not stated)	-1.578	-58.18	-4.947
O=C(O)C(F)(F)F.O=C(O)C(F)(F)F.O=C(c1cccnc1)N1CCn2nnc(COc3ccccn3)c2C1	-9.941	20.03	33.01
Cc1noc(C2(C)CCCN(C(=O)c3cnn(C)c3)C2)n1 (configuration not stated)	-39.7	-36.46	-3.537 & 4.309
[H][C@@]12CNC[C@]1([H])N(Cc1cccc(C#N)c1)CCO2	-9.278	-	21.15
Cc1nn(C)c2ncnc(N3CCCC(OCc4ccccn4)C3)c12 (configuration not stated)	-8.698	2.274	25.98
CN(CCc1ccc2c(c1)CCO2)CC1CCS(=O)(=O)C1 (configuration not stated)	-2.147	-131.1	-17.49
O=C(Cc1csc(-c2ccco2)n1)N1CCN(CCO)CC1	-2.643	5.565	13.22
CNC(=O)[C@@H](CC(C)C)N1CCC[C@H]1C(=O)N(C)Cc1cccnc1.Cl.Cl	11.92	-5.006	17.86
CCc1nc2n(n1)CC(NCc1cc3ccccc3o1)CC2 (configuration not stated)	1.803	-60.1	10.24
OCCN1CCN(Cc2cc(Cl)cc3cccnc23)CC1	9.732	4.677	16.62
COC(=O)c1sccc1S(=O)(=O)N1CCC(Oc2cccnn2)CC1	-2.408	42.51	5.871
Cl.Cl.c1c(CN2CCCCC2)nc2n1CCNC2	5.366	-76.63	-14.56
[H][C@@]12COC[C@]1([H])[C@@H](OCCN(C)C)CN2C(=O)c1ccc(C#N)cc1	7.432	14.51	35.93

Repeated from the top, 2 entries:

Result for Cc1ccsc1C(=O)N1CC2CC1(C(=O)NCc1ccco1)C2 was Toxoplasma: -10.72%; T. brucei: -19.79%; Leishmania in macrophages: -9.919%.
Result for COCCn1ccc2c(C(=O)O)cccc21 was Toxoplasma: -22.17%; T. brucei: -10.77%; Leishmania in macrophages: 32.62%.

From ChEMBL document CHEMBL3988442, “University of Dundee, Small-Polar-MMV Screening Library” (2021).